Results are given in words; binding and its absence hold for the method and conditions named. In cells and extracts the contact can be indirect. Some entries that bind do so weakly or less than the wild type. Tags and fused reporters may be left off the sequences shown.
Target: T1, GST-AKTIP fusion protein (full length AKTIP) (human) (UniProt Q9H8T0)
T1 sequence: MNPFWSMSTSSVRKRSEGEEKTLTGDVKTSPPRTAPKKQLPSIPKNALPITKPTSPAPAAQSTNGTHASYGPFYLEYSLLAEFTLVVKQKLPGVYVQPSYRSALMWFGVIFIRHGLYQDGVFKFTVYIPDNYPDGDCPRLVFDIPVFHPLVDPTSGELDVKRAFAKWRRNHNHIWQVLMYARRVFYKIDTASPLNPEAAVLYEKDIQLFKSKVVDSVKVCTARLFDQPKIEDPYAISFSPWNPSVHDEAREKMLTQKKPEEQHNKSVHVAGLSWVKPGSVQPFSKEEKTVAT
Assay: pull-down; GST pulldown with bacterially expressed, purified GST-AKTIP from 293T cell extracts; bound proteins detected by immunoblotting; only the target purified

Sequences of proteins named here, by UniProt entry; tags and fusion partners are left off.
UniProt P12004: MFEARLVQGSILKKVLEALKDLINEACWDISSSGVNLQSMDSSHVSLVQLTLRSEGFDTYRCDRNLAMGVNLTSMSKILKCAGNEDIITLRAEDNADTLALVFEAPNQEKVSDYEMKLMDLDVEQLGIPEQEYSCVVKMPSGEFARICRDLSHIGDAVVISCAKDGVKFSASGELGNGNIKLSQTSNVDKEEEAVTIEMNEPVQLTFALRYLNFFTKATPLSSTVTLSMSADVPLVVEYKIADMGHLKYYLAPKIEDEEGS
UniProt P27694: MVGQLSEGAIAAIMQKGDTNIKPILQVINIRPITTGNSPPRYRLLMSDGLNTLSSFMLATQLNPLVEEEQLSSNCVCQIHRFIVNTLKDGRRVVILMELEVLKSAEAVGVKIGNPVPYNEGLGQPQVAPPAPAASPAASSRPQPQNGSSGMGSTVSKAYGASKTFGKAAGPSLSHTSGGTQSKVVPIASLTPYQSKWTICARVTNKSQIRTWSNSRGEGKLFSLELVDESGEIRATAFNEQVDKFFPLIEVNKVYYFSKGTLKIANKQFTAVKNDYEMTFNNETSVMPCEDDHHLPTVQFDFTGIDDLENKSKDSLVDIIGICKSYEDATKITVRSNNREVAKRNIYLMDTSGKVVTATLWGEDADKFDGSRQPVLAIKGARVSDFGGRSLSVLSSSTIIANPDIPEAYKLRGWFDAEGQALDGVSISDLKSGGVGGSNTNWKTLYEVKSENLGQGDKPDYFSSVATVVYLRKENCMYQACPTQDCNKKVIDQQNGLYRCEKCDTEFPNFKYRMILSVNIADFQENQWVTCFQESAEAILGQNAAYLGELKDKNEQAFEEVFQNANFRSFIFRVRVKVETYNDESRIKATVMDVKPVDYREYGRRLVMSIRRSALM
UniProt P54274: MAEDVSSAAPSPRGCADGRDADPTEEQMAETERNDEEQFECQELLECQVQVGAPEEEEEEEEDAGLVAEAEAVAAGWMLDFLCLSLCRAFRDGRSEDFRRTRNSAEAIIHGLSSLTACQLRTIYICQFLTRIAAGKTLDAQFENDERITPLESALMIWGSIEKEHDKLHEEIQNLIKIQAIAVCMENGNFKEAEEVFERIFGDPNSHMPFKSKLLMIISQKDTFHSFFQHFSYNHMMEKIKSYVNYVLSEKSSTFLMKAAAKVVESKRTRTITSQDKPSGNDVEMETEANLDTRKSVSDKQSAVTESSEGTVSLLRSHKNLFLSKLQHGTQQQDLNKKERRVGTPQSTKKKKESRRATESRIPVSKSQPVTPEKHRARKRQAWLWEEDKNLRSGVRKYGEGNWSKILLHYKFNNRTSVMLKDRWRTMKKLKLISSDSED

binding, binds:
PCNA (proliferating cell nuclear antigen; endogenous, 293T cell extract) (from UniProt P12004 1-261)
RPA70 (endogenous, 293T cell extract) (from UniProt P27694 1-616)
TRF1 (endogenous, 293T cell extract) (from UniProt P54274 1-439)

From publication PMC4481533
